PubChem BioAssay AID1259308 | NCATS, 2017
Shown is an unselected part of about 59,000 reagents. About 1,510 of them (2.6%) were called active. 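Calls use total luciferase alone and ignore viability, so some active siRNAs may act by altering cell number.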 Entries without a mark were called inactive. Reagents against one gene are numbered here. Reagent sequences are not shown.

- Aim: 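Knock-downs that increase output of a recombinant reporter protein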 (primary screen)
- Cell system: human HEK293 embryonic kidney cells stably expressing firefly luciferase (HEK-CMV-Luc2-Hygro)
- Reagent: single siRNA against human genes, 0.8 pmol siRNA per well
- Duration: 72 h
- Measured: 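Reporter luminescence and viable-cell signal on separate replicate plates, given as percent of non-targeting control and median/MAD z-scores, plus per-cell luciferase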
- Scale: total luciferase, z-score and total luciferase, % of control: higher = more reporter protein produced; luciferase per cell, z-score: higher = more reporter output per viable cell; viable cells, % of control: higher = more viable cells
- Call rule: 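Active when the median/MAD z-score for overall luciferase is greater than 3; a gene was taken forward for validation with new siRNAs if at least two of its three siRNAs passed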
- Meaning of the calls: active = raised luciferase; inactive = no rise

no.	gene	reagent	total luciferase, z-score	total luciferase, % of control	luciferase per cell, z-score	viable cells, % of control
1	ZNF598	1	1.79	118	1.83	81.1
2	ZNF598	2	0.136	84.6	-0.514	108
3	ZNF598	3	0.255	87	0.421	87
4	FAM110A	1	-1.93	43.4	-1.41	70.4
5	FAM110A	2	1.88	119	1.16	98.2
6	FAM110A	3	0.36	89.1	0.538	86.4
7	MPZL2	1	1.83	118	1.79	82.5
8	MPZL2	2	0.0579	83	0.14	89.4
9	MPZL2	3	-0.3	75.9	-0.823	105
10	COQ3	1	2.13	124	1.47	94.3
11	COQ3	2	0.0618	83.1	-0.292	100
12	COQ3	3	-0.173	78.4	-0.277	94.3
13	INTS8	1	0.661	95	0.662	89.2
14	INTS8	2	5.34 (active)	188	3.08	93.5
15	INTS8	3	2.74	136	1.95	91.3
16	IL17RC	1	1.85	119	2.67	65.7
17	IL17RC	2	1.46	111	0.638	105
18	IL17RC	3	-0.446	73	-0.916	104
19	OSGEPL1	1	0.946	101	0.566	97
20	OSGEPL1	2	-1.96	42.9	-2.26	86.9
21	OSGEPL1	3	0.588	93.6	-0.171	109
22	ARHGAP22	1	-0.819	65.6	-0.173	76.7
23	ARHGAP22	2	-0.292	76.1	-0.625	100
24	ARHGAP22	3	1.01	102	0.801	92.3

Ordered by “viable cells, % of control” (low to high): some entries from above.
gene	reagent	total luciferase, z-score	total luciferase, % of control	luciferase per cell, z-score	viable cells, % of control
INTS8	1	0.661	95	0.662	89.2
INTS8	3	2.74	136	1.95	91.3
INTS8	2	5.34 (active)	188	3.08	93.5
COQ3	1	2.13	124	1.47	94.3
COQ3	3	-0.173	78.4	-0.277	94.3
COQ3	2	0.0618	83.1	-0.292	100

The results go on.
no.	gene	reagent	total luciferase, z-score	total luciferase, % of control	luciferase per cell, z-score	viable cells, % of control
25	TSPYL1	1	0.15	84.9	0.827	76.3
26	TSPYL1	2	2.35	129	2.47	74.9
27	TSPYL1	3	-0.291	76.1	0.202	80.6
28	SCRN2	1	0.387	89.6	0.679	83.7
29	SCRN2	2	-0.952	62.9	-1.18	96.1
30	SCRN2	3	-0.854	64.9	-0.763	88.7
31	COMP	1	-1.26	56.8	-1.63	97.4
32	COMP	2	0.994	102	1.44	77.7
33	COMP	3	0.566	93.1	1	79.9
34	ITGAM	1	-1.23	57.5	-1.69	100
35	ITGAM	2	-2.71	27.9	-1.81	50.3
36	ITGAM	3	0.204	85.9	0.714	79.6
37	DRG1	1	0.91	100	0.775	91.1
38	DRG1	2	-1.09	60.1	-0.912	85.4
39	DRG1	3	0.912	100	0.804	90.5
